For the experiment, the target named is insulin-like growth factor 2 mRNA-binding protein 2 (IGF2BP2) (human (endogenous in A673)), Q9Y6M1. Kind of experiment: co-IP; endogenous IGF2BP2 immunoprecipitated from 1 mg A673 total protein extract overnight with anti-IGF2BP2 antibody and anti-mouse IgG Dynabeads in RIP buffer (150 mM KCl, 25 mM Hepes pH 7.9, 5 mM EDTA, 0.5 mM DTT, 0.5% NP40); washed three times; western blot of retrieved proteins. Conditions: remark: other sources report otherwise. Background: A western blot detects proteins with antibodies after separation by electrophoresis.

The source of these data is article PMC6726650.

Results are given in words; binding and its absence hold for the method and conditions named. Binding seen in cells or lysates may run through a third protein.

B1: LIN28B protein, Q6ZN17 1-250 (protein)
chain: MAEGGASKGGGEEPGKLPEPAEEESQVLRGTGHCKWFNVRMGFGFISMINREGSPLDIPVDVFVHQSKLFMEGFRSLKEGEPVEFTFKKSSKGLESIRVTGPGGSPCLGSERRPKGKTLQKRKPKGDRCYNCGGLDHHAKECSLPPQPKKCHYCQSIMHMVANCPHKNVAQPPASSQGRQEAESQPCTSTLPREVGGGHGCTSPPFPQEARAEISERSGRSPQEASSTKSSIAPEEQSKKGPSVQKRKKT
Consider B1, for which the binding entry was “no binding”.
